# Data reported in the supplement of paper PMC8728848.
# This is one part of the list.
# Key:
# Assay in all cases: glycan array binding signal (z-score within array); higher = stronger binding
# Settings in all cases: glycan notation: IUPAC condensed, linker removed; mutation: Y54A
# [1] = molecular target: Gal(b1-3)GlcNAc(b1-2)Man(a1-3)[Gal(b1-3)GlcNAc(b1-2)Man(a1-6)]Man(b1-4)GlcNAc(b1-4)GlcNAc
# How it was run: (§1)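 Arrays were curated from the Consortium for Functional Glycomics database, 3228 in total, and kept only where the protein sequence was available. Binding is expressed as a within-array Z-score. This score was averaged across arrays of the same protein sequence at different concentrations or buffers and across linkers, and negative values can be read as non-binding.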
# [2] = molecular target: Gal(b1-3)GlcNAc(b1-2)Man(a1-3)[Gal(b1-3)GlcNAc(b1-2)Man(a1-6)]Man(b1-4)GlcNAc(b1-4)[Fuc(a1-6)]GlcNAc
# How it was run: as §1
# [3] = molecular target: Gal(b1-3)GlcNAc(b1-2)Man(a1-3)[GlcNAc(b1-4)][Gal(b1-3)GlcNAc(b1-2)Man(a1-6)]Man(b1-4)GlcNAc(b1-4)GlcNAc
# How it was run: as §1
# [4] = molecular target: Gal(b1-3)GlcNAc(b1-2)[Gal(b1-3)GlcNAc(b1-6)]Man(a1-6)[Gal(b1-3)GlcNAc(b1-2)Man(a1-3)]Man(b1-4)GlcNAc(b1-4)GlcNAc
# How it was run: as §1
# [5] = molecular target: Gal(b1-3)GlcNAc(b1-3)Gal(b1-3)GlcNAc
# How it was run: as §1
# [6] = molecular target: Gal(b1-3)GlcNAc(b1-3)Gal(b1-4)Glc
# How it was run: as §1
# [7] = molecular target: Gal(b1-3)GlcNAc(b1-3)Gal(b1-4)GlcNAc
# How it was run: as §1
# [8] = molecular target: Gal(b1-3)GlcNAc(b1-3)Gal(b1-4)GlcNAc(b1-2)Man(a1-3)[Gal(b1-3)GlcNAc(b1-3)Gal(b1-4)GlcNAc(b1-2)Man(a1-6)]Man(b1-4)GlcNAc(b1-4)GlcNAc
# How it was run: as §1
# [9] = molecular target: Gal(b1-3)GlcNAc(b1-3)Gal(b1-4)GlcNAc(b1-2)[Gal(b1-3)GlcNAc(b1-3)Gal(b1-4)GlcNAc(b1-6)]Man(a1-6)[Gal(b1-3)GlcNAc(b1-3)Gal(b1-4)GlcNAc(b1-2)Man(a1-3)]Man(b1-4)GlcNAc(b1-4)[Fuc(a1-6)]GlcNAc
# How it was run: as §1
# [10] = molecular target: Gal(b1-3)GlcNAc(b1-3)Gal(b1-4)GlcNAc(b1-3)Gal(b1-4)GlcNAc(b1-2)[Gal(b1-3)GlcNAc(b1-3)Gal(b1-4)GlcNAc(b1-3)Gal(b1-4)GlcNAc(b1-6)]Man(a1-6)[Gal(b1-3)GlcNAc(b1-3)Gal(b1-4)GlcNAc(b1-3)Gal(b1-4)GlcNAc(b1-2)Man(a1-3)]Man(b1-4)GlcNAc(b1-4)[Fuc(a1-6)]GlcNAc
# How it was run: as §1
# [11] = molecular target: Gal(b1-3)GlcNAc(b1-3)Gal(b1-4)GlcNAc(b1-6)[Gal(b1-3)GlcNAc(b1-3)]Gal(b1-4)Glc
# How it was run: as §1
# [12] = molecular target: Gal(b1-3)GlcNAc(b1-3)Gal(b1-4)[Fuc(a1-3)]GlcNAc
# How it was run: as §1
# [13] = molecular target: Gal(b1-3)GlcNAc(b1-3)Gal(b1-4)[Fuc(a1-3)]GlcNAc(b1-6)[Gal(b1-3)GlcNAc(b1-3)]Gal(b1-4)Glc
# How it was run: as §1
# [14] = molecular target: Gal(b1-3)GlcNAc(b1-3)GalNAc
# How it was run: as §1
# [15] = molecular target: Gal(b1-3)GlcNAc(b1-6)Gal(b1-4)GlcNAc
# How it was run: as §1
# [16] = molecular target: Gal(b1-3)GlcNAc(b1-6)GalNAc
# How it was run: as §1
# [17] = molecular target: Gal(b1-3)GlcNAc(b1-6)[Gal(b1-3)]GalNAc
# How it was run: as §1
# Gal(b1-3)GlcNAc6S = molecular target: Gal(b1-3)GlcNAc6S
# How it was run: as §1
# [18] = molecular target: Gal(b1-3)[Fuc(a1-4)]GlcNAc
# How it was run: as §1
# [19] = molecular target: Gal(b1-3)[Fuc(a1-4)]GlcNAc(b1-2)Man
# How it was run: as §1
# [20] = molecular target: Gal(b1-3)[Fuc(a1-4)]GlcNAc(b1-2)Man(a1-3)[Gal(b1-3)[Fuc(a1-4)]GlcNAc(b1-2)Man(a1-6)]Man(b1-4)GlcNAc(b1-4)[Fuc(a1-6)]GlcNAc
# How it was run: as §1
# [21] = molecular target: Gal(b1-3)[Fuc(a1-4)]GlcNAc(b1-3)Gal(b1-3)[Fuc(a1-4)]GlcNAc
# How it was run: as §1
# [22] = molecular target: Gal(b1-3)[Fuc(a1-4)]GlcNAc(b1-3)Gal(b1-4)[Fuc(a1-3)]GlcNAc
# How it was run: as §1
# [23] = molecular target: Gal(b1-3)[Fuc(a1-4)]GlcNAc(b1-6)GalNAc
# How it was run: as §1
# [24] = molecular target: Gal(b1-3)[GlcNAc(b1-6)]GalNAc
# How it was run: as §1
# [25] = molecular target: Gal(b1-3)[Neu5Ac(a2-6)]GalNAc
# How it was run: as §1
# [26] = molecular target: Gal(b1-3)[Neu5Ac(a2-6)]GlcNAc(b1-4)Gal(b1-4)Glc
# How it was run: as §1
# [27] = molecular target: Gal(b1-3)[Neu5Ac(b2-6)]GalNAc
# How it was run: as §1
# Gal(b1-4)Gal = molecular target: Gal(b1-4)Gal
# How it was run: as §1
# [28] = molecular target: Gal(b1-4)GalNAc(a1-3)[Fuc(a1-2)]Gal(b1-4)GlcNAc
# How it was run: as §1
# [29] = molecular target: Gal(b1-4)GalNAc(b1-3)[Fuc(a1-2)]Gal(b1-4)GlcNAc
# How it was run: as §1
# Gal(b1-4)Glc = molecular target: Gal(b1-4)Glc
# How it was run: as §1
# Gal(b1-4)Glc6S = molecular target: Gal(b1-4)Glc6S
# How it was run: as §1
# Gal(b1-4)GlcNAc = molecular target: Gal(b1-4)GlcNAc
# How it was run: as §1
# [30] = molecular target: Gal(b1-4)GlcNAc(a1-6)Gal(b1-4)GlcNAc
# How it was run: as §1
# Gal(b1-4)GlcNAc(b1-2)Man = molecular target: Gal(b1-4)GlcNAc(b1-2)Man
# How it was run: as §1
# [31] = molecular target: Gal(b1-4)GlcNAc(b1-2)Man(a1-3)Man(b1-4)GlcNAc(b1-4)GlcNAc
# How it was run: as §1
# [32] = molecular target: Gal(b1-4)GlcNAc(b1-2)Man(a1-3)[Gal(b1-4)GlcNAc(b1-2)Man(a1-6)]Man(b1-4)GlcNAc(b1-4)GlcNAc
# How it was run: as §1
# [33] = molecular target: Gal(b1-4)GlcNAc(b1-2)Man(a1-3)[Gal(b1-4)GlcNAc(b1-2)Man(a1-6)]Man(b1-4)GlcNAc(b1-4)[Fuc(a1-6)]GlcNAc
# How it was run: as §1
# [34] = molecular target: Gal(b1-4)GlcNAc(b1-2)Man(a1-3)[Gal(b1-4)GlcNAc(b1-2)Man(a1-6)][Gal(b1-4)GlcNAc(b1-4)]Man(b1-4)GlcNAc(b1-4)[Fuc(a1-6)]GlcNAc
# How it was run: as §1
# [35] = molecular target: Gal(b1-4)GlcNAc(b1-2)Man(a1-3)[Gal(b1-4)GlcNAc(b1-2)Man(a1-6)][GlcNAc(b1-4)]Man(b1-4)GlcNAc(b1-4)[Fuc(a1-6)]GlcNAc
# How it was run: as §1
# [36] = molecular target: Gal(b1-4)GlcNAc(b1-2)Man(a1-3)[GlcNAc(b1-2)Man(a1-6)]Man(b1-4)GlcNAc(b1-4)GlcNAc
# How it was run: as §1
# [37] = molecular target: Gal(b1-4)GlcNAc(b1-2)Man(a1-3)[GlcNAc(b1-4)][Gal(b1-4)GlcNAc(b1-2)Man(a1-6)]Man(b1-4)GlcNAc(b1-4)GlcNAc
# How it was run: as §1
# [38] = molecular target: Gal(b1-4)GlcNAc(b1-2)Man(a1-3)[Man(a1-6)]Man(b1-4)GlcNAc(b1-4)GlcNAc
# How it was run: as §1
# [39] = molecular target: Gal(b1-4)GlcNAc(b1-2)Man(a1-6)Man(b1-4)GlcNAc(b1-4)GlcNAc
# How it was run: as §1
binder,measurement,setting,value
"CBP21 (Serratia marcescens), O83009 (protein) MNKTSRTLLSLGLLSAAMFGVSQQANAHGYVESPASRAYQCKLQLNTQCGSVQAEPQSVEGLKGFPQAGPADGHIASADKSTFFELDQQTPTRWNKLNLKTGPNSFTWKLTARHSTTSWRYFITKPNWDASQPLTRASFDLTPFCQFNDGGAIPAAQVTHQCNIPADRSGSHVILAVWDIADTANAFYQAIDVNLSK",glycan array binding signal (z-score),[1],-0.113
same,glycan array binding signal (z-score),[2],-1.39
same,glycan array binding signal (z-score),[3],-0.459
same,glycan array binding signal (z-score),[4],-0.408
same,glycan array binding signal (z-score),[5],0.339
same,glycan array binding signal (z-score),[6],1.22
same,glycan array binding signal (z-score),[7],-0.479
same,glycan array binding signal (z-score),[8],2.73
same,glycan array binding signal (z-score),[9],-0.069
same,glycan array binding signal (z-score),[10],0.349
same,glycan array binding signal (z-score),[11],0.206
same,glycan array binding signal (z-score),[12],-0.001
same,glycan array binding signal (z-score),[13],-0.866
same,glycan array binding signal (z-score),[14],1.21
same,glycan array binding signal (z-score),[15],-0.48
same,glycan array binding signal (z-score),[16],-0.691
same,glycan array binding signal (z-score),[17],-0.318
same,glycan array binding signal (z-score),Gal(b1-3)GlcNAc6S,-0.888
same,glycan array binding signal (z-score),[18],-0.359
same,glycan array binding signal (z-score),[19],0.608
same,glycan array binding signal (z-score),[20],0.588
same,glycan array binding signal (z-score),[21],-0.221
same,glycan array binding signal (z-score),[22],-0.201
same,glycan array binding signal (z-score),[23],-0.717
same,glycan array binding signal (z-score),[24],-0.666
same,glycan array binding signal (z-score),[25],-0.166
same,glycan array binding signal (z-score),[26],-0.271
same,glycan array binding signal (z-score),[27],-0.397
same,glycan array binding signal (z-score),Gal(b1-4)Gal,1.25
same,glycan array binding signal (z-score),[28],-1.45
same,glycan array binding signal (z-score),[29],-0.864
same,glycan array binding signal (z-score),Gal(b1-4)Glc,0.106
same,glycan array binding signal (z-score),Gal(b1-4)Glc6S,-0.383
same,glycan array binding signal (z-score),Gal(b1-4)GlcNAc,-0.372
same,glycan array binding signal (z-score),[30],0.859
same,glycan array binding signal (z-score),Gal(b1-4)GlcNAc(b1-2)Man,-0.757
same,glycan array binding signal (z-score),[31],0.423
same,glycan array binding signal (z-score),[32],-0.442
same,glycan array binding signal (z-score),[33],-0.168
same,glycan array binding signal (z-score),[34],-0.748
same,glycan array binding signal (z-score),[35],-0.111
same,glycan array binding signal (z-score),[36],0.583
same,glycan array binding signal (z-score),[37],-0.743
same,glycan array binding signal (z-score),[38],0.166
same,glycan array binding signal (z-score),[39],-0.373

# Fetched one by one from the list above, four records:
binder,measurement,setting,value
"CBP21 (Serratia marcescens), O83009 (protein) MNKTSRTLLSLGLLSAAMFGVSQQANAHGYVESPASRAYQCKLQLNTQCGSVQAEPQSVEGLKGFPQAGPADGHIASADKSTFFELDQQTPTRWNKLNLKTGPNSFTWKLTARHSTTSWRYFITKPNWDASQPLTRASFDLTPFCQFNDGGAIPAAQVTHQCNIPADRSGSHVILAVWDIADTANAFYQAIDVNLSK",glycan array binding signal (z-score),[13],-0.866
same,glycan array binding signal (z-score),[14],1.21
same,glycan array binding signal (z-score),[36],0.583
same,glycan array binding signal (z-score),[38],0.166
